According to publication PMC11192394:
No constants are given. Whether binding was seen depends on the method and setting.

Tests used:
[1] = biological target: T1, Rrp1 DNA translocase (S. pombe) (UniProt O13762); assay: two-hybrid; Gal4-based Matchmaker Two-Hybrid System 3 (Clontech); fusions to GAL4 AD (pGADT7) and GAL4 DBD (pGBKT7) in S. cerevisiae AH109; selected on SD DO-2, spotted on high stringency SD DO-4 (without Leu, Trp, His, Ade); 3-5 days at 28°C
T1 sequence: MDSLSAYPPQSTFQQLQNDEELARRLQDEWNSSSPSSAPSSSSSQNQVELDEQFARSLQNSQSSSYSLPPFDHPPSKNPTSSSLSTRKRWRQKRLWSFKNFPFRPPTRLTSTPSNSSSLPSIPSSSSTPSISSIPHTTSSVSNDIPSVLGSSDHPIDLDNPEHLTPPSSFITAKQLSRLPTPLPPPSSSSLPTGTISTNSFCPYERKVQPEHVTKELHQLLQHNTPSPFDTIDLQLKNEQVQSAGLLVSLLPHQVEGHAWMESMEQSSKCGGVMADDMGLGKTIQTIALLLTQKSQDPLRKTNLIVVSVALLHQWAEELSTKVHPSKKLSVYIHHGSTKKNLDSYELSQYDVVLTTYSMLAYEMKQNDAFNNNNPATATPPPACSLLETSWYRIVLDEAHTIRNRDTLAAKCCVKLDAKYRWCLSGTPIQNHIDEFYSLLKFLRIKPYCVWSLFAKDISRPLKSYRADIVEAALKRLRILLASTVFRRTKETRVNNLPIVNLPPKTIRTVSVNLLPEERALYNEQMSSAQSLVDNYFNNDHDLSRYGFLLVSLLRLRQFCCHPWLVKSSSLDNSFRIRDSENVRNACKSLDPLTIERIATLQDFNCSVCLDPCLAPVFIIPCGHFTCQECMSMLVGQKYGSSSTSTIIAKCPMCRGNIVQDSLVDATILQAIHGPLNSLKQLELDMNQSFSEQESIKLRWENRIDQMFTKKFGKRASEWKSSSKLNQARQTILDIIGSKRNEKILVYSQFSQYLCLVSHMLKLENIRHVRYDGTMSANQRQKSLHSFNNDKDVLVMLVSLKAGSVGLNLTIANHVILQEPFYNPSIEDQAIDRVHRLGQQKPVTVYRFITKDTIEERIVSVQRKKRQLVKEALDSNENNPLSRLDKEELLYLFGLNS

[2] = biological target: T2, Rrp2 DNA translocase (S. pombe) (UniProt O60177); assay: as above
T2 sequence: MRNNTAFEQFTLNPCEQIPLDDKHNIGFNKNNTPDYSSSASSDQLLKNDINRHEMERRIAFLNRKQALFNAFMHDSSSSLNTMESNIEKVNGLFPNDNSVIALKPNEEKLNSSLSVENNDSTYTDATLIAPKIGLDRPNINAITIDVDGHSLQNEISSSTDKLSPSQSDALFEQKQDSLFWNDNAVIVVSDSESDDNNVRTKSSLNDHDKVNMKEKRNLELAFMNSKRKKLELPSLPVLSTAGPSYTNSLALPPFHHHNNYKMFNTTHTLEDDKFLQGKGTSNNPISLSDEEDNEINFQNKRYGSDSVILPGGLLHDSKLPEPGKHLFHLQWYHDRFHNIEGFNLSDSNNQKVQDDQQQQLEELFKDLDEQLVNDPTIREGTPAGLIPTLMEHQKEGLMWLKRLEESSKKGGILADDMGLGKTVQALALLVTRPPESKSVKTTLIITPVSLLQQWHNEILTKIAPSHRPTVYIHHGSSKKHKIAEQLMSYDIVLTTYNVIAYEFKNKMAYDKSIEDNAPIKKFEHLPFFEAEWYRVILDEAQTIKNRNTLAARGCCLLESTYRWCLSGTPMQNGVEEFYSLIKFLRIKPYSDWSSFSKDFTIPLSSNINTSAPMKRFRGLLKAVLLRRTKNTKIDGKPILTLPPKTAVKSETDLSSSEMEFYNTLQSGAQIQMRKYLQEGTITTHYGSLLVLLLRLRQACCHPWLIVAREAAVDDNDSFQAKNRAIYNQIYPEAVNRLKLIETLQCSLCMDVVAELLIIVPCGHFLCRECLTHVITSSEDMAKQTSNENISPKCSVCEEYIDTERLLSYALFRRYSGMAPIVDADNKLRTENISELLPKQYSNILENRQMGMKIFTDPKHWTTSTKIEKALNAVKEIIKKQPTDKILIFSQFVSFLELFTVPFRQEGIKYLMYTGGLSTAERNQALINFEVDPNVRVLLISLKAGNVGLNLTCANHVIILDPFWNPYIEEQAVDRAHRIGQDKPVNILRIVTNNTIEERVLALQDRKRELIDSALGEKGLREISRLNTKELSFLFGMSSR

- binding [1]: no binding
- binding [2]: no binding
B1: Srs2 helicase (enzyme, UniProt Q10213 1-887)
chain: METKSSYLKFLNEEQRISVQSPHKYTQILAGPGSGKTRVLTARVAYLLQKNHIAAEDLIIATFTNKAANEIKLRIEAILGNSEASKLISGTFHSIAYKYLVKYGKHIGLSSNWLIADRNDTQAIMKRLLDSLKKAKNPIASGIRGQELTPQNALNRITKLKSNGLLVKPGMDQLSLINGLEEPPKELQSHQSVELYRLYQTSLWKNNLADFDDLLLNFILLLQKQPDCVRNIKHILIDEFQDTSKIQYFLVKLLALQNSDITIVGDPDQSIYGFRSAEIRNLNQMSEDFEGTQVLHLERNYRSAKPILELALSIISQDKSRPKKGLKSNHISSLKPHYRLFETNNKESYWIAREIKRIVGSCPELIFYNDIAILVRSSSLTRSLEHALSELGVPYRMVGVNKFFDREEIRDLIAYLRVLANKDSTSLIRVINVPPRNIGKTKIDRIIFESERRGLTFWQTLNEVKNENILLSQRNDKSFLKSLKSFLCSISKLENRYLSNGHSATLSDLLLGILSEIKYYEYLVRKNKETVEEKWENVMELVQQSDNISCIFYELDYKISTIVLLQNFLTQIALVNEEQKEGESQKVTISTLHAAKGLEWPVVFLPCLCENIIPHSRSDDLDEERRLLYVGATRAQALLYLSSFKSVTGMFADMQNSDNVQDVSPFLKGEEMKRWVMESEIVFNEKIASEIGTILGRKSYGKITNLSGIGSNANHNGTKFENLGFQCCRVLAEAELKKRERVKSVNDYNKDETNFRKHNAKRSKTDIRSWFEKKQPIDSDVEISEPSRSASIMVANKDLNDRSFETVNRIVSTRASTTNASFMSSVRQNLGRGPSTKDQVINRTLREGHQDVVQHTDLNQSNTKVASARPAGSRKRLGVRLRVSRML
